The supplement of paper PMC12067093, “Discovery and optimisation of a covalent ligand for TRIM25 and its application to targeted protein ubiquitination” (Chemical Science, 2025)
The other results are listed elsewhere or left out.

Chains of the proteins cited; added tags and fusions are not shown. Lines headed by an entry give the natural chain unless they say otherwise; changes in a name come on top.
UniProt O15270: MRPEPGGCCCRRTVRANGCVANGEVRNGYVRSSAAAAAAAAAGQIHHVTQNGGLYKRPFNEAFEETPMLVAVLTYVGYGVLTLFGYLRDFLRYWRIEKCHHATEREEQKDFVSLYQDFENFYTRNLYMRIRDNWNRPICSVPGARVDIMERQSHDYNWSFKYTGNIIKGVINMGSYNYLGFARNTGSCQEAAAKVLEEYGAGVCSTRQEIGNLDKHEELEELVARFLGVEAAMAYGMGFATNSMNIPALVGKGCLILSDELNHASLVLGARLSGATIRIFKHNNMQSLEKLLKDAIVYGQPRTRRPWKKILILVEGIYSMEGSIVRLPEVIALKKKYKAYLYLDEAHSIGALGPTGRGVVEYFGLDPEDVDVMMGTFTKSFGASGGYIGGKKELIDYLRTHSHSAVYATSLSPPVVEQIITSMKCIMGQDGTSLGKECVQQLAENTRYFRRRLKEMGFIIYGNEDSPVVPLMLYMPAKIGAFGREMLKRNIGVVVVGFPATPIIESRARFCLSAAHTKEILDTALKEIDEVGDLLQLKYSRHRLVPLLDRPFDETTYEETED
UniProt Q9UHB9: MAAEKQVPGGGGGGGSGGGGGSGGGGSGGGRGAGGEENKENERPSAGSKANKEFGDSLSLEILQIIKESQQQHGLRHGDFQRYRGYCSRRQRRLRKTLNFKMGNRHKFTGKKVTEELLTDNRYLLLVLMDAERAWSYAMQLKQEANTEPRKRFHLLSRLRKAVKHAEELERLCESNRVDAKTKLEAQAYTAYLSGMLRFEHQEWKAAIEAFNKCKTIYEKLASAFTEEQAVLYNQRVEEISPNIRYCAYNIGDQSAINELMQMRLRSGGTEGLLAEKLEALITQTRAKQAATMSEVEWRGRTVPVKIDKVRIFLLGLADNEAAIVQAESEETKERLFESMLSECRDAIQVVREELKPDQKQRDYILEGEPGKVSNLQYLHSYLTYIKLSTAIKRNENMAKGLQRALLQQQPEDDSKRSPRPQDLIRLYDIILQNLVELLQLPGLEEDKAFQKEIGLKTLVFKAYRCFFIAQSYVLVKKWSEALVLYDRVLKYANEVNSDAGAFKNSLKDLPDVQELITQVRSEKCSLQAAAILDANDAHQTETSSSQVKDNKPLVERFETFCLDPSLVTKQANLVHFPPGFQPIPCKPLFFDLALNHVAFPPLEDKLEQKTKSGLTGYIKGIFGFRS
UniProt Q02447: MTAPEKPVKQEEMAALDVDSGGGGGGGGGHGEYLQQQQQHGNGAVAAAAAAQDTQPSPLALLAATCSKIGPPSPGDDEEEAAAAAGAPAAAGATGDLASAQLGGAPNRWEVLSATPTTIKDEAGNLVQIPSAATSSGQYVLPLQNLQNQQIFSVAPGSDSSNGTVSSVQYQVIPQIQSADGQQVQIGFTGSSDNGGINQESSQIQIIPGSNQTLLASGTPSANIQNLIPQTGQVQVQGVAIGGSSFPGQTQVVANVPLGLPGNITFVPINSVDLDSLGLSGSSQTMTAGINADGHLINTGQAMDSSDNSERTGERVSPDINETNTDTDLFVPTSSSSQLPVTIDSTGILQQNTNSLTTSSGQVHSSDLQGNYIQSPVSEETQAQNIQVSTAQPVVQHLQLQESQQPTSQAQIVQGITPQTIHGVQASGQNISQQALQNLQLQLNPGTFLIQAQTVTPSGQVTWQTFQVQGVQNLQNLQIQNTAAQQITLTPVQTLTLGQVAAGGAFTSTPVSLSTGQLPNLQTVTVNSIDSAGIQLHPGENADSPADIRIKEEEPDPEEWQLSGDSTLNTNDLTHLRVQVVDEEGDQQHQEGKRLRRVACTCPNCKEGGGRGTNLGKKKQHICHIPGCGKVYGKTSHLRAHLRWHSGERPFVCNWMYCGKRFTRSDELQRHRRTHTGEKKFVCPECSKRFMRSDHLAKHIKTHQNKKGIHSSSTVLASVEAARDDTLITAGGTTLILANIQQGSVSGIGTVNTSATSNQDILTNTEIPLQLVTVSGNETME
UniProt Q86XZ4: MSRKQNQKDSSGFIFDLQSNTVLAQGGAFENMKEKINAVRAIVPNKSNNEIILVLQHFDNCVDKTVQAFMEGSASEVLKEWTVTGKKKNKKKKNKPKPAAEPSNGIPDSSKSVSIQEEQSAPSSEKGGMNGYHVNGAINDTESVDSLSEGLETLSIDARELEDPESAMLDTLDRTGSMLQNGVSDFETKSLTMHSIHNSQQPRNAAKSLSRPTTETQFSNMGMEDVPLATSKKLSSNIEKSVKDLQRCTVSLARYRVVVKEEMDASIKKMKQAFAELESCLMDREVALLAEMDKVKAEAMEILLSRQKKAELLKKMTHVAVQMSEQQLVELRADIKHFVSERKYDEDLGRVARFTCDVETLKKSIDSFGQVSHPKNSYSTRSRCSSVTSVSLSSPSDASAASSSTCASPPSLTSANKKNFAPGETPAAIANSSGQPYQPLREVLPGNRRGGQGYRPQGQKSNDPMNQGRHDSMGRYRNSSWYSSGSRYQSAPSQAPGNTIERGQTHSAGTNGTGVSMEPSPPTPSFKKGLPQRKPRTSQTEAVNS
UniProt Q9Y5X3: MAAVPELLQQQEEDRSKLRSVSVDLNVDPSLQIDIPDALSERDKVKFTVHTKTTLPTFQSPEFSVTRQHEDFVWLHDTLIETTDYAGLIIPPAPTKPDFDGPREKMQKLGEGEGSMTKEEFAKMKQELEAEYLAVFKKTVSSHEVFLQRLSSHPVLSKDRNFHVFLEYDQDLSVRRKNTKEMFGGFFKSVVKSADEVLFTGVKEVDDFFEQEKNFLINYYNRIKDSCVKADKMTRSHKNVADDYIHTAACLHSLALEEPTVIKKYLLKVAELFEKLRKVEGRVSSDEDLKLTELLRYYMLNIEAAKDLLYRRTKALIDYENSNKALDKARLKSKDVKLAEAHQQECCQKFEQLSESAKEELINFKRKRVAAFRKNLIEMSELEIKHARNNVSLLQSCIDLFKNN
UniProt Q96R06: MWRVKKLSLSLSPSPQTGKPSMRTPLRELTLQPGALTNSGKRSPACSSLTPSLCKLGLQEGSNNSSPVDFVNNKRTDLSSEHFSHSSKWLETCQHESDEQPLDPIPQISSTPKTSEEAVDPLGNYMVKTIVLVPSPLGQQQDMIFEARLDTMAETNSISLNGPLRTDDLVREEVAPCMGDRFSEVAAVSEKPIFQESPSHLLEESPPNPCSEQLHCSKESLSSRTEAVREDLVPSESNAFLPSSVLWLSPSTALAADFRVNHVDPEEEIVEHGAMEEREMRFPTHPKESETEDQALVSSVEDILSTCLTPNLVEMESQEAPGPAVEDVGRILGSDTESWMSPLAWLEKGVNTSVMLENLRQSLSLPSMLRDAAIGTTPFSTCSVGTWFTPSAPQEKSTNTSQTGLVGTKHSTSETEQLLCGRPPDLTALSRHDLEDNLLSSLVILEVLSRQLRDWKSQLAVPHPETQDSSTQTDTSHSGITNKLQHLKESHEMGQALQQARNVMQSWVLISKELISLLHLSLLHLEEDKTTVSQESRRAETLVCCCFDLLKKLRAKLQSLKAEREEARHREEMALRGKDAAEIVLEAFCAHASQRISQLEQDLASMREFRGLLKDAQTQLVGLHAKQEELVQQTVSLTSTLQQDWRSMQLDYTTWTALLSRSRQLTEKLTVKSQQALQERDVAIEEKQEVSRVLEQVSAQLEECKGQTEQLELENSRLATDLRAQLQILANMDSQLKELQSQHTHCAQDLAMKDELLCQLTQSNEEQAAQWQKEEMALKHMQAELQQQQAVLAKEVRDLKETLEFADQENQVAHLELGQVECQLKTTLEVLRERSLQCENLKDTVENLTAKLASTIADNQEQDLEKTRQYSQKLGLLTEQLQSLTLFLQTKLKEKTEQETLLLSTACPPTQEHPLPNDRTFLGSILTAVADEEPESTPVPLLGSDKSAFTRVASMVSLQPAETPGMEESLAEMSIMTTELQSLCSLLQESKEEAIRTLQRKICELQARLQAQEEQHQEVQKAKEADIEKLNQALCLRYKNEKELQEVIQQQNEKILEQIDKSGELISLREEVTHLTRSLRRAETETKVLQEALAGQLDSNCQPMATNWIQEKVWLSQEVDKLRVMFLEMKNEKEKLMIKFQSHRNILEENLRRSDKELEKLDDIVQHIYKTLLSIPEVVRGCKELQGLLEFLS
UniProt Q9BVQ7: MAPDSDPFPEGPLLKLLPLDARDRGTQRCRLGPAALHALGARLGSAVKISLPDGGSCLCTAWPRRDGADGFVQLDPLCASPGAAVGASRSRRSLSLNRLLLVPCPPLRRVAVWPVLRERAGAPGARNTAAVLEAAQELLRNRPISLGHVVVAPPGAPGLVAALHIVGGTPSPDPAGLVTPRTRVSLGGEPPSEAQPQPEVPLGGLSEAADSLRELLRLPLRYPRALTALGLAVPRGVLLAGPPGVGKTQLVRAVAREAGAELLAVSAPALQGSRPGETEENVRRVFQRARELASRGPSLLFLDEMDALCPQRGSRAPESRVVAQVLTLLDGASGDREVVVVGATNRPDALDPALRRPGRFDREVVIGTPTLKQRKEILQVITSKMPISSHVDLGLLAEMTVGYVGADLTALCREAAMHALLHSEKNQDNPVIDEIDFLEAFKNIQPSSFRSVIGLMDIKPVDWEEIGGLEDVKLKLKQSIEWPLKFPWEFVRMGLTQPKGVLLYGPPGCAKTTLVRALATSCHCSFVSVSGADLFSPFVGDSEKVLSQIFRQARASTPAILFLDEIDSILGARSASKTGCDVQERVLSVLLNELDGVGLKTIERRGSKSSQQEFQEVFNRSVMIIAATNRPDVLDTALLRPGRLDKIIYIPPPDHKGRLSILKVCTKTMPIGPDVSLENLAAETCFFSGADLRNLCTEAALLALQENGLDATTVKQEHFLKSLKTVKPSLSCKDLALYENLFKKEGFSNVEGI
UniProt P08047, whole entry, looked up: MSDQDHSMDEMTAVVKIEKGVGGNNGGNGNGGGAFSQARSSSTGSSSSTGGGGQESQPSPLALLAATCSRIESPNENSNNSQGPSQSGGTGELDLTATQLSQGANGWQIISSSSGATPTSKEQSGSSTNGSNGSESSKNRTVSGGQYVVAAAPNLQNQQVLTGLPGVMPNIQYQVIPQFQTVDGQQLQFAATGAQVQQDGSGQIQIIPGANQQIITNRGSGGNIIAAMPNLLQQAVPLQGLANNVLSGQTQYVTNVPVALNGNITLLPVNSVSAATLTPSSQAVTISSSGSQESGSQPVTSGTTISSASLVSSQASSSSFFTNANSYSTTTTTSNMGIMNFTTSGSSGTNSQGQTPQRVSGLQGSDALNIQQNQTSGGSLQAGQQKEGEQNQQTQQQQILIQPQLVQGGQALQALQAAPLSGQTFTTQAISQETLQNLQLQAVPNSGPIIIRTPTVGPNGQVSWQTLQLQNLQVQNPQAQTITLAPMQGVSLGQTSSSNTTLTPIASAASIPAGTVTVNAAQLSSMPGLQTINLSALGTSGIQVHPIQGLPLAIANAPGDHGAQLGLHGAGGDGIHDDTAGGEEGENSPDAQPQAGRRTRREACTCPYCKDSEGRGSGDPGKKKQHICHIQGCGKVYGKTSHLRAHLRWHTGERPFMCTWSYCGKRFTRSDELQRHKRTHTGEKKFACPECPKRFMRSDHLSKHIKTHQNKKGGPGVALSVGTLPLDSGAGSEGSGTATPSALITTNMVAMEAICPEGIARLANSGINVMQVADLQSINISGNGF
UniProt Q8NCJ5: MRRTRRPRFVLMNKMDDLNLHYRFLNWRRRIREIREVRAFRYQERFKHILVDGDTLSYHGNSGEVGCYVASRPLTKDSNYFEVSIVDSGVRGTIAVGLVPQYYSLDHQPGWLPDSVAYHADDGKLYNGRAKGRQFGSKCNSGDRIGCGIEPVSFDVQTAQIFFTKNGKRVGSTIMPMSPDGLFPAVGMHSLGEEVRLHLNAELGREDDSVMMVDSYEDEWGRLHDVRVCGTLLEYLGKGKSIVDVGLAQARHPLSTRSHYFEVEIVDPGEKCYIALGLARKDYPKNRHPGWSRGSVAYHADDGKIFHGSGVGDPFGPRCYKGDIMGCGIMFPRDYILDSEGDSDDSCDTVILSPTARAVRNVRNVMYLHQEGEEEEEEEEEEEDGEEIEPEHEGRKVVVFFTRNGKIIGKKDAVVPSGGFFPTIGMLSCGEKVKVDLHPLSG
UniProt P49458: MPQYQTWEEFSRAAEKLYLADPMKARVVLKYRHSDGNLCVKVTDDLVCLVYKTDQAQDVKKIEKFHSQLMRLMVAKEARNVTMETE
UniProt Q00796: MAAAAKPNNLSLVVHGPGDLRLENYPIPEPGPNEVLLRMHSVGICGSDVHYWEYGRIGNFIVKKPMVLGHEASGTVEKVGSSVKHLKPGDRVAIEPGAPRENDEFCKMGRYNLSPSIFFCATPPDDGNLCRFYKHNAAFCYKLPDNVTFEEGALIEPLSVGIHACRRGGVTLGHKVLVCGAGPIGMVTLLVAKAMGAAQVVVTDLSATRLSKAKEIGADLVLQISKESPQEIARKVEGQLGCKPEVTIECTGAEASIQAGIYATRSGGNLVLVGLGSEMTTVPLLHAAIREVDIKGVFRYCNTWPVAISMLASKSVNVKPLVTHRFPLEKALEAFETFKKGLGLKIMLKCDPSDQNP

Compound: Cc1cc(ccc1-c1ccccc1)C(=O)N1CCCN(CC1)C(=O)CCl [compound 10]
Assay: probe-labelled cysteine peptide fold change vs DMSO (competition) (log2 fold change); higher = less target engagement (more negative = stronger competition)
Settings: THP-1, incubation time: 4 h
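Note: competitive profiling in live THP-1 cells: cysteine peptides tagged with an iodoacetamide desthiobiotin (IA-DTB) probe, intensity after compound treatment relative to DMSO-treated cells.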

Target	probe-labelled cysteine peptide fold change (10 µM)	probe-labelled cysteine peptide fold change (50 µM)
SOGA1_O94964_984_DCNHLGALACQDPPGR (UniProt O94964)	-0.177	-0.193
SPDL1_Q96EA4_490_EETQSCPNSLEDNNLQLEK (UniProt Q96EA4)	0.102	-0.285
SP140_Q13342_686_SQNNSSVDPCMR (UniProt Q13342)	-0.246	-0.188
SRP19_P09132_17_FICIYPAYLNNKK (UniProt P09132)	0.198	-0.0559
SPTAN1_Q13813_1454_DCEQAENWMAAR (UniProt Q13813)	0.0387	-0.0591
SPTLC2_O15270_188_NTGSCQEAAAK (UniProt O15270)	0.142	0.0919
SRGN_P10124_40+49_CNPDSNSANCLEEK (UniProt P10124)	-0.774	-0.569
SRP68_Q9UHB9_344_LFESMLSECR (UniProt Q9UHB9)	0.00902	0.163
SPTAN1_Q13813_2233_TYLLDGSCMVEESGTLESQLEATK (UniProt Q13813)	-0.192	-0.216
SP3_Q02447_623+628_QHICHIPGCGK (UniProt Q02447)	-0.239	-0.41
SPATS2_Q86XZ4_280_QAFAELESCLMDR (UniProt Q86XZ4)	-0.0886	0.363
SNX27_Q96L92_456_LHACTEEGQLENQVIAFEWDEMQR (UniProt Q96L92)	0.146	0.371
SQOR_Q9Y6N5_201_CAGAPQK (UniProt Q9Y6N5)	-0.191	-0.122
SPECC1_Q5M775_740_CEAQQELR (UniProt Q5M775)	0.0327	0.182
SNX5_Q9Y5X3_346_LAEAHQQECCQK (UniProt Q9Y5X3)	-0.101	-0.226
SP100_P23497_373_EGQEATCSRPQIVPEPMDFR (UniProt P23497)	-0.146	-0.282
SRPK1_Q96SB4_455_AEIPCEDEQEQEHNGPLDNK (UniProt Q96SB4)	-0.137	-0.0035
SRP72_O76094_54_VVCLIQNGSFK (UniProt O76094)	0.0906	-0.275
SPAG5_Q96R06_704_VLEQVSAQLEECK (UniProt Q96R06)	0.112	0.178
SPATA5L1_Q9BVQ7_104_LLLVPCPPLRR (UniProt Q9BVQ7)	0.19	0.0616
SRI_P30626_57+75_CLTQSGIAGGYKPFNLETCR (UniProt P30626)	0.277	-0.139
SORBS3_O60504_645_EGDRVDVMQQCDDGWFVGVSR (UniProt O60504)	-0.0836	-0.33

Target	probe-labelled cysteine peptide fold change (10 µM)	probe-labelled cysteine peptide fold change (50 µM)
SNX29_Q8TEQ0_44_VTCLCAQFEAVLQHGLK (UniProt Q8TEQ0)	-0.185	0.116
SNX1_Q13596_318_LQEVECEEQR (UniProt Q13596)	-0.177	-0.146
SP1_P08047_606_EACTCPYCK (UniProt P08047)	0.251	0.637
SPTAN1_Q13813_2120_CNSLEEIK (UniProt Q13813)	-0.0272	-0.0027
SQSTM1_Q13501_113_RDHRPPCAQEAPR (UniProt Q13501)	-0.0103	-0.579
SPR_P35270_10_AVCLLTGASR (UniProt P35270)	-0.063	-0.045
SPRYD3_Q8NCJ5_147_IGCGIEPVSFDVQTAQIFFTK (UniProt Q8NCJ5)	-0.324	0.199
SPATA5L1_Q9BVQ7_78_RDGADGFVQLDPLCASPGAAVGASR (UniProt Q9BVQ7)	-0.102	0.473
SNX5_Q9Y5X3_250_NVADDYIHTAACLHSLALEEPTVIKK (UniProt Q9Y5X3)	-0.206	-0.436
SRP9_P49458_48_VTDDLVCLVYK (UniProt P49458)	0.216	-0.255
SPAG5_Q96R06_589_DAAEIVLEAFCAHASQR (UniProt Q96R06)	0.117	0.188
SP1_P08047_633_KQHICHIQGCGK (UniProt P08047)	-0.0751	-0.699
SNU13_P55769_102_PVIACSVTIK (UniProt P55769)	0.154	0.0502
SRP68_Q9UHB9_586_QANLVHFPPGFQPIPCK (UniProt Q9UHB9)	0.0722	0.0253
SRPRA_P08240_424_QRPYVVTFCGVNGVGK (UniProt P08240)	0.0797	0.262
SORD_Q00796_120_YNLSPSIFFCATPPDDGNLCR (UniProt Q00796)	0.0609	0.316
SORD_Q00796_350_CDPSDQNP (UniProt Q00796)	-0.0388	-0.0976
SNX9_Q9Y5X1_427_CTGPLPK (UniProt Q9Y5X1)	-0.0239	-0.209
SPCS2_Q15005_17+26_SGGSGGCSGAGGASNCGTGSGR (UniProt Q15005)	-0.494	-1.1
SPTLC2_O15270_99_CHHATER (UniProt O15270)	0.306	0.809
SPATS2_Q86XZ4_61_SNNEIILVLQHFDNCVDK (UniProt Q86XZ4)	-0.158	-0.611

Reformatted field by field: entries from further up
SPRYD3_Q8NCJ5_147_IGCGIEPVSFDVQTAQIFFTK (UniProt Q8NCJ5)
  probe-labelled cysteine peptide fold change (10 µM) = -0.324
  probe-labelled cysteine peptide fold change (50 µM) = 0.199
SPATA5L1_Q9BVQ7_78_RDGADGFVQLDPLCASPGAAVGASR (UniProt Q9BVQ7)
  probe-labelled cysteine peptide fold change (10 µM) = -0.102
  probe-labelled cysteine peptide fold change (50 µM) = 0.473
SNX5_Q9Y5X3_250_NVADDYIHTAACLHSLALEEPTVIKK (UniProt Q9Y5X3)
  probe-labelled cysteine peptide fold change (10 µM) = -0.206
  probe-labelled cysteine peptide fold change (50 µM) = -0.436
SRP9_P49458_48_VTDDLVCLVYK (UniProt P49458)
  probe-labelled cysteine peptide fold change (10 µM) = 0.216
  probe-labelled cysteine peptide fold change (50 µM) = -0.255
